The values below come from the supplement of paper PMC6143611.

The test system of test [1] is Danio rerio larva rod photoreceptor outer segment. As to the kind of experiment: rod outer segment growth distance Dg, difference from same-week DMSO control mean; higher = more outer segment growth. The note with it: 20 µM; treatment time: 4 days (6-10 dpf).
For test [2] the test system is unchanged. As to the kind of experiment: rod outer segment shedding distance Ds, difference from same-week DMSO control mean; higher = less outer segment shedding. As to conditions: 20 µM; treatment time: 4 days (6-10 dpf).

SMILES strings stand for the structures. Where a name gives a salt, the structure may show the parent alone. ± gives the uncertainty stated by the source. This is one part of the list. Part of the spread comes from offsets between plates or batches.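 A heat-shock-induced fluorescent stripe was set in larval rod outer segments at 6 dpf. Shedding distance ran from stripe to outer segment tip, measured by confocal stacks in about three fish per compound. Controls: 0.2% DMSO vehicle. Flagged compounds showed ≥20% change from same-week control, p < 0.001 (Dunnett test on mixed-effects models).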

With `COc1ccc2c(c1)c(CC(=O)OCC(=O)O)c(C)n2C(=O)c1ccc(Cl)cc1` [Acemetacin], in test [1], the “rod outer segment growth distance Dg” value was -1.52 ± 0.27 um. For the same compound, the “rod outer segment shedding distance Ds” value in test [2] was -0.68 ± 0.17 um.

Turning to `COc1c2occc2cc2ccc(=O)oc12` [Methoxsalen], the “rod outer segment growth distance Dg” value in test [1] is -0.44 ± 0.19 um. Also, the “rod outer segment shedding distance Ds” value in test [2] was -1.59 ± 0.3 um.

In the case of `C[C@@H]1CCO[C@H]2Cn3cc(C(=O)NCc4ccc(F)cc4F)c(=O)c(O)c3C(=O)N12`, in test [1], the “rod outer segment growth distance Dg” value was -0.78 ± 0.23 um. Moreover, the “rod outer segment shedding distance Ds” value in test [2] is -0.33 ± 0.12 um.

In the case of `NC(=O)c1ncn([C@@H]2O[C@H](CO)[C@@H](O)[C@H]2O)n1` [Ribavirin], in test [1], the “rod outer segment growth distance Dg” value came out at 0.08 ± 0.23 um. Further, the “rod outer segment shedding distance Ds” value in test [2] was -0.37 ± 0.27 um.

`COc1cc2nc(N(C)CCCNC(=O)C3CCCO3)nc(N)c2cc1OC` (stereo unspecified) [Alfuzosin HCl]: the “rod outer segment growth distance Dg” value in test [1] is -0.33 ± 0.21 um. In addition, the “rod outer segment shedding distance Ds” value in test [2] is -0.34 ± 0.2 um.

Regarding `COc1c(N2CCNC(C)C2)c(F)cc2c(=O)c(C(=O)O)cn(C3CC3)c12` (stereo unspecified) [Gatifloxacin], in test [1], the “rod outer segment growth distance Dg” value came out at 0.58 ± 0.31 um. Besides, the “rod outer segment shedding distance Ds” value in test [2] was 0.23 ± 0.21 um.

In the case of `O=C(NC(Cc1cc(=O)[nH]c2ccccc12)C(=O)O)c1ccc(Cl)cc1` (stereo unspecified) [Rebamipide], the “rod outer segment growth distance Dg” value in test [1] is -0.23 ± 0.27 um. The “rod outer segment shedding distance Ds” value in test [2] is -0.33 ± 0.3 um.

For the compound `CC(C[N+](C)(C)C)OC(N)=O` (stereo unspecified) [Bethanechol chloride], in test [1], the “rod outer segment growth distance Dg” value was found to be 0.56 ± 0.28 um. In addition, the “rod outer segment shedding distance Ds” value in test [2] is -0.22 ± 0.38 um.

Turning to `NNC(=O)c1ccncc1` [Isoniazid], in test [1], the “rod outer segment growth distance Dg” value is 0.6 ± 0.23 um. Moreover, in test [2], the “rod outer segment shedding distance Ds” value was -1.41 ± 0.28 um.

`CC1(C)[C@H](C(=O)O)N2C(=O)C[C@H]2S1(=O)=O` [Sulbactam sodium]: the “rod outer segment growth distance Dg” value in test [1] came to 0.75 ± 0.26 um. In addition, the “rod outer segment shedding distance Ds” value in test [2] was -0.43 ± 0.16 um.

For `Cc1onc(-c2ccccc2Cl)c1C(=O)N[C@@H]1C(=O)N2[C@@H]1SC(C)(C)[C@@H]2C(=O)O` [Cloxacillin Sodium], the “rod outer segment growth distance Dg” value in test [1] is -0.76 ± 0.24 um. Also, the “rod outer segment shedding distance Ds” value in test [2] is -0.77 ± 0.15 um.

As for `Cc1ncc([N+](=O)[O-])n1CC(C)O` (stereo unspecified) [Secnidazole], the “rod outer segment growth distance Dg” value in test [1] was -0.17 ± 0.21 um. Moreover, the “rod outer segment shedding distance Ds” value in test [2] was 0.14 ± 0.2 um.

In the case of `c1ccc(NCc2ccc(CNc3ccccn3)cc2)nc1`, the “rod outer segment growth distance Dg” value in test [1] is -1.44 ± 0.2 um. In addition, the “rod outer segment shedding distance Ds” value in test [2] is -0.46 ± 0.14 um.

In the case of `CC(C)N(CC[C@H](c1ccccc1)c1cc(CO)ccc1O)C(C)C`, the “rod outer segment growth distance Dg” value in test [1] was -0.04 ± 0.17 um. Also, the “rod outer segment shedding distance Ds” value in test [2] is -0.52 ± 0.13 um.

`C[C@]12CCC3=C4CCC(=O)C=C4CC[C@H]3[C@@H]1CC[C@@]2(O)CC#N` [Dienogest]: in test [1], the “rod outer segment growth distance Dg” value came out at 0.18 ± 0.23 um. The “rod outer segment shedding distance Ds” value in test [2] was -0.86 ± 0.21 um.

On to `CC(=O)O[C@H]1C[C@@H]2CC[C@@H]3[C@H](CC[C@@]4(C)[C@H]3C[C@H]([N+]3(C)CCCCC3)[C@@H]4OC(C)=O)[C@@]2(C)C[C@@H]1N1CCCCC1` [Vecuronium Bromide], for which the “rod outer segment growth distance Dg” value in test [1] was determined as 0.26 ± 0.16 um. Moreover, in test [2], the “rod outer segment shedding distance Ds” value is -0.22 ± 0.17 um.

As for `CC[C@H](C)C(=O)O[C@H]1C[C@H](O)C=C2C=C[C@H](C)[C@H](CC[C@@H](O)C[C@@H](O)CC(=O)O)[C@H]21` [Pravastatin sodium], in test [1], the “rod outer segment growth distance Dg” value was -0.06 ± 0.15 um. In addition, the “rod outer segment shedding distance Ds” value in test [2] was 0.03 ± 0.15 um.

As to `CCN1CCC[C@H]1CNC(=O)c1cc(S(N)(=O)=O)ccc1OC` [Levosulpiride], the “rod outer segment growth distance Dg” value in test [1] was 0.51 ± 0.27 um. In addition, the “rod outer segment shedding distance Ds” value in test [2] is -0.42 ± 0.26 um.

Regarding `c1cnc2cc3c(cc2n1)[C@@H]1CNC[C@H]3C1` [Varenicline Tartrate], the “rod outer segment growth distance Dg” value in test [1] was -0.25 ± 0.17 um. Besides, the “rod outer segment shedding distance Ds” value in test [2] is -0.23 ± 0.19 um.

With `[I-].[K+]` [Potassium Iodide], in test [1], the “rod outer segment growth distance Dg” value turned out to be 0.87 ± 0.26 um. Further, the “rod outer segment shedding distance Ds” value in test [2] worked out at 1.52 ± 0.29 um.

Turning to `CC(C(=O)O)c1ccc2c(c1)Cc1cccnc1O2` (stereo unspecified) [Pranoprofen], in test [1], the “rod outer segment growth distance Dg” value is 0.63 ± 0.22 um. In addition, the “rod outer segment shedding distance Ds” value in test [2] is -1.53 ± 0.32 um.

Consider `Cn1c(=O)c2c(ncn2CC(O)CO)n(C)c1=O` (stereo unspecified) [Dyphylline], for which the “rod outer segment growth distance Dg” value in test [1] amounted to 0.09 ± 0.21 um. Besides, the “rod outer segment shedding distance Ds” value in test [2] was 0.04 ± 0.2 um.

On to `C[C@H]1[C@H](NC(=O)/C(=N\OC(C)(C)C(=O)O)c2csc(N)n2)C(=O)N1S(=O)(=O)O` [Aztreonam], for which the “rod outer segment growth distance Dg” value in test [1] was -0.87 ± 0.23 um. In addition, the “rod outer segment shedding distance Ds” value in test [2] is 0.51 ± 0.21 um.

For `NC(=O)[C@@H](CCC(F)(F)F)N(Cc1ccc(-c2ncon2)cc1F)S(=O)(=O)c1ccc(Cl)cc1`, the “rod outer segment growth distance Dg” value in test [1] is -0.51 ± 0.35 um. The “rod outer segment shedding distance Ds” value in test [2] was -1.4 ± 0.43 um.

For the compound `CO/N=C(\C(=O)N[C@@H]1C(=O)N2C(C(=O)O)=C(CSC(=O)c3ccco3)CS[C@H]12)c1csc(N)n1` [Ceftiofur HCl], the “rod outer segment growth distance Dg” value in test [1] was -0.94 ± 0.2 um. Further, the “rod outer segment shedding distance Ds” value in test [2] was -0.7 ± 0.19 um.

Regarding `CCCc1nc(C(C)(C)O)c(C(=O)OCc2oc(=O)oc2C)n1Cc1ccc(-c2ccccc2-c2nnn[nH]2)cc1` [Olmesartan Medoxomil], in test [1], the “rod outer segment growth distance Dg” value turned out to be 0.58 ± 0.16 um. Also, the “rod outer segment shedding distance Ds” value in test [2] is 0.3 ± 0.13 um.

For `CNC[C@H](O)[C@@H](O)[C@H](O)[C@H](O)CO` [Meglumine], in test [1], the “rod outer segment growth distance Dg” value was found to be 0.82 ± 0.28 um. In addition, in test [2], the “rod outer segment shedding distance Ds” value amounted to 0.18 ± 0.27 um.

In the case of `CC(=O)Oc1ccccc1C(=O)O` [Aspirin], the “rod outer segment growth distance Dg” value in test [1] stood at 0.19 ± 0.14 um. For the same compound, the “rod outer segment shedding distance Ds” value in test [2] was 0.17 ± 0.15 um.

Take `C[C@H](Nc1ncnc2nc[nH]c12)c1cc2cccc(Cl)c2c(=O)n1-c1ccccc1`: the “rod outer segment growth distance Dg” value in test [1] is -0.6 ± 0.17 um. For the same compound, in test [2], the “rod outer segment shedding distance Ds” value was found to be 0.07 ± 0.12 um.

`Cn1cc(-c2ccc3nnc(C(F)(F)c4ccc5ncccc5c4)n3n2)cn1`: in test [1], the “rod outer segment growth distance Dg” value was -0.99 ± 0.19 um. In test [2], the “rod outer segment shedding distance Ds” value was -0.35 ± 0.21 um.

Take `CCCCOc1ccc(C(=O)Nc2ccc(F)cc2F)cc1`: in test [1], the “rod outer segment growth distance Dg” value came out at 0.05 ± 0.17 um. Moreover, in test [2], the “rod outer segment shedding distance Ds” value was found to be 0.4 ± 0.13 um.

Turning to `CNC(=O)c1cccc(-c2ccc3c(N4CCOC[C@@H]4C)nc(N4CCOC[C@@H]4C)nc3n2)c1`, the “rod outer segment growth distance Dg” value in test [1] was -1.38 ± 0.15 um. For the same compound, the “rod outer segment shedding distance Ds” value in test [2] came out at 0.12 ± 0.13 um.

On to `CN(Cc1cnc2nc(N)nc(N)c2n1)c1ccc(C(=O)N[C@@H](CCC(=O)O)C(=O)O)cc1` [Methotrexate], for which the “rod outer segment growth distance Dg” value in test [1] was found to be 0.65 ± 0.22 um. Also, the “rod outer segment shedding distance Ds” value in test [2] is -0.71 ± 0.25 um.
